Laboratory results: PubChem BioAssay AID720505 (Drosophila RNAi Screening Center, 2013)
Test: 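Genes needed for store-operated calcium entry in fly cells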 (primary screen). Cell system: Drosophila S2R+ cells. Reagents: long dsRNA against Drosophila genes. Treatment: thapsigargin (2 µM) in calcium-free buffer to empty internal stores, then 2 mM calcium added back. Measured: 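Stores emptied by 2 µM thapsigargin without calcium, then 2 mM calcium re-added; fluo-4 fluorescence followed by FLIPR in 384-well plates, per-well averaged endpoint, raw; two screen passes, some wells retested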. Reading the numbers: calcium signal: higher = more calcium entry after store depletion. Hit rule: 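Knock-downs counted as hits when calcium entry dropped relative to STIM1 positive and Rho1 negative controls present on each plate; roughly 1500 genes called, with reductions of differing size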. Calls: active = called as lowering calcium entry; inactive = not called.
The deposit covers about 20,000 reagents; shown is a random part of those with a known target gene and a result. In the full data, about 2,100 (10%) are marked active. 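Raw plate signals without normalisation; calls rest on control-based scores that were not deposited; replicate 2 separates called from uncalled poorly.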 A number with no mark means an inactive call. The record does not give: the amount of reagent, the time to read-out.

no.	gene knocked down	DRSC id	calcium signal, replicate 1	calcium signal, replicate 2
1	sgll (sugarlethal)	DRSC15442	126	150
2	Cyp6g1 (Cytochrome P450 6g1)	DRSC07386	175	141
3	Acox57D-p (acyl-Coenzyme A oxidase at 57D proximal)	DRSC04560	149	86.6
4	Slik (Sterile20-like kinase)	DRSC04471	182	106
5	miple2 (midkine and pleiotrophin 2)	DRSC08723	99.8	134
6	brk (brinker)	DRSC18745	197	120
7	brk (brinker)	DRSC23036	102	152
8	Cpr72Eb (Cuticular protein 72Eb)	DRSC09870	86.2	109
9	beat-IIa (beaten path IIa)	DRSC14813	138	181
10	beat-IIa (beaten path IIa)	DRSC14814	162	220
11	CalpA (Calpain-A)	DRSC07352	167	161
12	CG7304	DRSC10804	80.7	154
13	maca	DRSC15738	121	144
14	Cyp6u1 (Cytochrome P450 6u1)	DRSC05015	152	78.9
15	CG34210	DRSC04579	95.5	145
16	mdy (midway)	DRSC01559	87	90.3
17	mdy (midway)	DRSC02250	97.3	115
18	CG7791	DRSC04891	120	134
19	gudu	DRSC02820	152	77.3
20	Ahcy (Adenosylhomocysteinase)	DRSC19329	141	92.5
21	CG30323	DRSC07656	85.4	110
22	Oseg6 (Outer segment 6)	DRSC06066	153	146
23	His3.3A (Histone H3.3A)	DRSC03343	69.8 (active)	107
24	JTBR	DRSC08667	106	127
25	Gr59b (Gustatory receptor 59b)	DRSC04179	153	213
26	Ote (Otefin)	DRSC07498	140	99.7
27	Mst57Db (Male-specific RNA 57Db)	DRSC21551	203	125
28	CG8861	DRSC16449	99.6	75.6
29	CG33093	DRSC15775	113	150
30	CG9313	DRSC04540	193	82.5
31	CG16959	DRSC10230	185	83.8
32	CG4537	DRSC02756	163	139
33	CG10365	DRSC14234	116	162
34	CG10467	DRSC09728	100	52.2

Reformatted: 5 of the entries above.
gene knocked down | DRSC id | calcium signal, replicate 1 | calcium signal, replicate 2
Mst57Db (Male-specific RNA 57Db) | DRSC21551 | 203 | 125
CG8861 | DRSC16449 | 99.6 | 75.6
CG33093 | DRSC15775 | 113 | 150
CG9313 | DRSC04540 | 193 | 82.5
CG16959 | DRSC10230 | 185 | 83.8
